According to patent US9745556B2, “Variants of glycerol dehydrogenase having D-lactate dehydrogenase activity and uses thereof” (UNIVERSITY OF FLORIDA RESEARCH FOUNDATION, INC., priority 2011, dated 2017):
For at least one compound, name, drawing or mass did not settle the structure.

The chains behind the UniProt entries cited, without tags or fusion partners. Where a name states a change or a piece, a line headed by the entry shows the natural chain unless it says otherwise.
UniProt A0AAN0T381, entry or part of it: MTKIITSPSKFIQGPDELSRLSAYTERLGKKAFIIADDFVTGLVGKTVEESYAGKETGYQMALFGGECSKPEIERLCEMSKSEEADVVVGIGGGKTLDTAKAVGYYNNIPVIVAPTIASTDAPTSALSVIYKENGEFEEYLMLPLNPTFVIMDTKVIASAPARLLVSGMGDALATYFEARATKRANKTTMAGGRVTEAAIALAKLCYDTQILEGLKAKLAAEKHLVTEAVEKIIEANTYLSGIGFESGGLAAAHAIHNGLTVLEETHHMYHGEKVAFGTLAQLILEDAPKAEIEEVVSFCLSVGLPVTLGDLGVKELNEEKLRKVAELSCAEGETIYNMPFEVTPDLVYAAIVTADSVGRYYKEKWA

Experiments:
[1] = target: Bacillus coagulans glycerol dehydrogenase (GlyDH/GDH), native, strain P4-102B, SEQ ID NO: 3 (Heyndrickxia coagulans, UniProt A0AAN0T381); format: biochemical
Description: Cultures were grown (LB-glucose medium in pH-controlled fermenters) to mid-exponential phase, harvested, and used for enzyme assays as previously described (23). Glycerol dehydrogenase from strain QZ19 was purified using differential ammonium sulfate precipitation followed by anion-exchange and hydrophobic interaction chromatography. GlyDH and GlyDH* were also purified as N-terminal His-tagged enzymes (33). GlyDH and LDH were assayed using standard methods (34, 35).
During the development of a D-lactate producing B. coagulans derivative (strain QZ19), a glycerol dehydrogenase (GDH) with two mutations (D121N and F245S) evolved to catalyze the reduction of pyruvate to D-lactate (Table 1 and FIG. 7). The first derivative that produced a significant D-lactate titer, strain QZ15, carried a single mutation that changed the amino acid phenylalanine at position 245 to serine. As strain QZ15 was further selected for higher lactate productivity, the GDH protein acquired a second mutation in amino acid position 121 (D121N) (FIG. 15). Combination of these two mutations led strain QZ19 to produce D-lactic acid at a titer close to 100 g/L in 48 hours at pH 5.0 and 50° C. in pH-controlled fermentations. In order to evaluate the role of each of these two mutations in the catalysis of pyruvate reduction to D-lactate, GDH/LDH enzyme with either of the two substitutions (D121N or F245S) and the protein with both changes were expressed in E. coli, purified, and their biochemical properties were determined.

[2] = target: T1, Bacillus coagulans glycerol dehydrogenase (GlyDH/GDH, native SEQ ID NO: 3) variant F245S, D121N (GlyDH*, strain QZ19, SEQ ID NO: 1) (Heyndrickxia coagulans, UniProt A0AAN0T381, D121N/F245S); assay: Kinetic properties of mutated glycerol dehydrogenase with both changes (GlyDH*); conditions: column head S245S, 55° C.
T1 sequence (A0AAN0T381 1-367 D121N/F245S): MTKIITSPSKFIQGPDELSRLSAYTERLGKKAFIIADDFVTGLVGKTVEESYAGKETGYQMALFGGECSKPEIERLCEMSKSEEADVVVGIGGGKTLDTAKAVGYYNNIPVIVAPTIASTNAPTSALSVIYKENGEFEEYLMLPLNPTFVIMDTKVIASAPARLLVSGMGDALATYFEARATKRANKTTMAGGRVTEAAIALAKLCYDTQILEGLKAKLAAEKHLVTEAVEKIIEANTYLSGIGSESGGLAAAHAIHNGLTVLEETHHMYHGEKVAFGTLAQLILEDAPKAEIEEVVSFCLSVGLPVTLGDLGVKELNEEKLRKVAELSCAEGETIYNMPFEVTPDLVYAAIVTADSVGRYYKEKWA

`CC(=O)C(=O)O` [Pyruvate] was tested, and the Kcat ([1]; Native, 55° C.) was 3.3 s⁻¹, the Kcat/Km ([1]; Native, 55° C.) was 3 M⁻¹ s⁻¹ and the “apparent Km for pyruvate relative to that for glycerol” value ([1]; native enzyme) was “about 100 fold”. The Kcat [2] was 35.5 s⁻¹ and the Kcat/Km [2] was 700 M⁻¹ s⁻¹.
